Record: PubChem BioAssay AID1508597 (Cure First, 2020)
Shown is a random part of the about 2,100 reagents, in one setting of the screen. 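Calls flag viability under 80% in either arm, not effects specific to rucaparib; the reference for percent is not stated.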 A reagent listed more than once was tested more than once; the source does not tell the runs apart. No sequences are given here. The record does not give: the 100% reference.

Aim: 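Genes whose silencing sensitises or protects ovarian cancer cells against rucaparib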 (primary screen)
System: human ovarian carcinoma lines grown from tumours: OCI-P5x (papillary serous) and OCI-C5x (clear cell)
Knock-down reagent: siRNA pool against human genes, 1.25 pmol siRNA per well
Timing: 72 h or 96 h, depending on the cell culture
Conditions: rucaparib 20 µM (about IC30) or vehicle, present until read-out
Rucaparib or vehicle: Vehicle
Cell line: OCI-P5x (serous)
Measurement: 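Luminescent ATP-based viability assay read 72 or 96 h after transfection, depending on culture, given as normalised percent viability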
Direction: viability, normalised: higher = more viable cells remaining
Rule for the call: 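a well counts as a hit if its normalised viability is under 80 percent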
Meaning of the calls: active = viability under 80%; inactive = viability 80% or more

| gene | technical replicate | viability, normalised (%) | activity call |
| --- | --- | --- | --- |
| MARVELD3 | 1 | 47.4 | active |
| MARVELD3 | 2 | 79.4 | active |
| MARVELD3 | 3 | 74.6 | active |
| LY6E | 1 | 85.1 | inactive |
| LY6E | 2 | 81.8 | inactive |
| LY6E | 3 | 82.6 | inactive |
| STK32A | 1 | 101 | inactive |
| STK32A | 2 | 89.6 | inactive |
| STK32A | 3 | 72.6 | active |
| NME1 | 1 | 82.6 | inactive |
| NME1 | 1 | 55.7 | active |
| NME1 | 2 | 107 | inactive |
| NME1 | 2 | 65.7 | active |
| NME1 | 3 | 81.6 | inactive |
| NME1 | 3 | 126 | inactive |
| PCK2 | 1 | 100 | inactive |
| PCK2 | 2 | 97.1 | inactive |
| PCK2 | 3 | 78.6 | active |
| DGKZ | 1 | 103 | inactive |
| DGKZ | 2 | 74.4 | active |
| DGKZ | 3 | 95.4 | inactive |
| DDX54 | 1 | 59.9 | active |
| DDX54 | 2 | 76.5 | active |
| DDX54 | 3 | 43.9 | active |
| TWF2 | 1 | 81.9 | inactive |
| TWF2 | 2 | 67.8 | active |
| TWF2 | 3 | 77.2 | active |

Records above whose gene name starts with L or l (3):
| gene | technical replicate | viability, normalised (%) | activity call |
| --- | --- | --- | --- |
| LY6E | 1 | 85.1 | inactive |
| LY6E | 2 | 81.8 | inactive |
| LY6E | 3 | 82.6 | inactive |

Further reagents:
| gene | technical replicate | viability, normalised (%) | activity call |
| --- | --- | --- | --- |
| QPCT | 1 | 68.9 | active |
| QPCT | 2 | 64.8 | active |
| QPCT | 3 | 74.7 | active |
| XYLB | 1 | 95.7 | inactive |
| XYLB | 2 | 79.5 | active |
| XYLB | 3 | 89.8 | inactive |
| PRKXP1 | 1 | 105 | inactive |
| PRKXP1 | 2 | 89.8 | inactive |
| PRKXP1 | 3 | 80 | inactive |
| SCYL1 | 1 | 73.5 | active |
| SCYL1 | 1 | 49.4 | active |
| SCYL1 | 2 | 59 | active |
| SCYL1 | 2 | 73.9 | active |
| SCYL1 | 3 | 62.7 | active |
| SCYL1 | 3 | 74.3 | active |
| DGKB | 1 | 90.2 | inactive |
| DGKB | 2 | 94.5 | inactive |
| DGKB | 3 | 108 | inactive |
| SLX1A | 1 | 70.5 | active |
| SLX1A | 2 | 67.7 | active |
| SLX1A | 3 | 76.8 | active |
| CACNA1A | 1 | 50.7 | active |
| CACNA1A | 2 | 95 | inactive |
| CACNA1A | 3 | 89.8 | inactive |
| SLK | 1 | 65.9 | active |
| SLK | 2 | 70.3 | active |
| SLK | 3 | 63.4 | active |
| KDM6A | 1 | 72.7 | active |
| KDM6A | 2 | 67.3 | active |
| KDM6A | 3 | 74.9 | active |
